Data published in US20190367631A1.
No constants are given. Whether binding was seen depends on the method and setting. Some binding calls cover weakened binding; strength is not graded here. For some of these results: Sequences can lack the tags named with a protein.

T1: mouse MSR1 extracellular domain expressed with a N-terminal nonahistidine tag (His9-mMSR1) (mouse) (UniProt P30204)
T1 sequence (looked up): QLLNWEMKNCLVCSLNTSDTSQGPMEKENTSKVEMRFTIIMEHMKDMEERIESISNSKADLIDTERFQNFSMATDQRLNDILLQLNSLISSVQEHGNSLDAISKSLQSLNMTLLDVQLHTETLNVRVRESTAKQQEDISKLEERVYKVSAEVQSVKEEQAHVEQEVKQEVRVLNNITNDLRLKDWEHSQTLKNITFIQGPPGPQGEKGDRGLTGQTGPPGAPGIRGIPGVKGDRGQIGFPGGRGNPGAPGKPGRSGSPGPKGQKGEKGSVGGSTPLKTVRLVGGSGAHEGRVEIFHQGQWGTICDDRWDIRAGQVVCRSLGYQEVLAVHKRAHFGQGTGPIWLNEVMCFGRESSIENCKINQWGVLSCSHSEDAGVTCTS

T2: human MSR1 extracellular domain expressed with a N-terminal nonahistidine tag (His9-hMSR1) (human) (UniProt P21757)
T2 sequence (looked up): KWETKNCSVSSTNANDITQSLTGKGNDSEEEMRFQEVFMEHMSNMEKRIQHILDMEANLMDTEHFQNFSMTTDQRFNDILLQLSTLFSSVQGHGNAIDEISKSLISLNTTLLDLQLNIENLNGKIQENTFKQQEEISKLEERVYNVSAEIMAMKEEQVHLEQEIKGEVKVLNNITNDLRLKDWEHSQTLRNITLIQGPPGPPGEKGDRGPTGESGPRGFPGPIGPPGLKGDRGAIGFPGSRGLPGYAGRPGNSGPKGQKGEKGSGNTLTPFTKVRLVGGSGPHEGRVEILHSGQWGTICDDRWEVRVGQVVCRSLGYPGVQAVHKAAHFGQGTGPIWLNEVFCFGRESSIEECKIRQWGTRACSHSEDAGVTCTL


Experiments:
[1] = target: full length monkey MSR1 on HEK293.mfMSR1 cells (monkey (Macaca fascicularis)); assay: ECL cell binding (MSD), 11 nM antibody
[2] = target: full length monkey MSR1 on HEK293.mfMSR1 cells (Macaca fascicularis); assay: ECL cell binding; section head of Table 10
[3] = target: T1, mouse MSR1 extracellular domain expressed with a N-terminal nonahistidine tag (His9-mMSR1) (mouse); assay: BLI Octet, antibody captured, 25 C
[4] = target: T2, human MSR1 extracellular domain expressed with a N-terminal nonahistidine tag (His9-hMSR1) (human); assay: SPR Biacore T200, antibody captured, 25 C

Row | binding [1] | binding [2] | binding [3] | binding [4] | Binder
1 | binds | binds | – | – | H1H27739P-N297Q (antibody, human IgG1, V domains shown) VH: EVQLVESGGGLVQPGGSLRLSCTASGFTFSSYAMSWVRQAPGKGLEWVSAISGTGSSTYFTDSVKGRFAISRDNSKNTLYLQMNSLRAEDTAVYYCAKDGEWLSTVTLFDYWGQGTLVTVSS VL: EIVMTQSPATLSVSPGERATLSCRASQSVSSNLAWYQQKPGQAPRLLIYGASTRATGIPARFSGSGSGTDFTLTISSLQSEDFALYYCQQYFIWPPHPTFGPGTKVDIKR
2 | binds | binds | binds | – | H1H21234N-N297Q (antibody, human IgG1, V domains shown) VH: QVQLQESGPGLVKPSETLSLTCTVTGGSISRNYWSWIRQPPGKGLEWIGYIYYSGSIDYNPSLKSRVTISVDTSKNQFSLKLSSMTAADTAVYYCARDRWNWKYGMDVWGQGTTVIVSS VL: EIVLTQSPGTLSLSPGERATLSCRASQTVRNNYLAWYHQKPGQAPRLLIYGASSRATGIPDRFSGSGSGTDFTLTISRLEPEDFTVYYCHQYGNSPWTFGQGTKMEIKR
3 | – | – | – | binds | H1H21234N-N297Q-LP3 (antibody, V domains shown, LP3 via PEG3-N3 on Q295 and Q297 of the heavy chain constant region) VH: QVQLQESGPGLVKPSETLSLTCTVTGGSISRNYWSWIRQPPGKGLEWIGYIYYSGSIDYNPSLKSRVTISVDTSKNQFSLKLSSMTAADTAVYYCARDRWNWKYGMDVWGQGTTVIVSS VL: EIVLTQSPGTLSLSPGERATLSCRASQTVRNNYLAWYHQKPGQAPRLLIYGASSRATGIPDRFSGSGSGTDFTLTISRLEPEDFTVYYCHQYGNSPWTFGQGTKMEIKR
4 | binds | binds | binds | – | H1H21234N (antibody, human IgG1, V domains shown) VH: QVQLQESGPGLVKPSETLSLTCTVTGGSISRNYWSWIRQPPGKGLEWIGYIYYSGSIDYNPSLKSRVTISVDTSKNQFSLKLSSMTAADTAVYYCARDRWNWKYGMDVWGQGTTVIVSS VL: EIVLTQSPGTLSLSPGERATLSCRASQTVRNNYLAWYHQKPGQAPRLLIYGASSRATGIPDRFSGSGSGTDFTLTISRLEPEDFTVYYCHQYGNSPWTFGQGTKMEIKR
5 | binds | binds | – | – | H2aM25695N (antibody, mouse IgG2a, V domains shown) VH: QVQLQESGPGLVKPSETLSLTCTVTGGSISRNYWSWIRQPPGKGLEWIGYIYYSGSINYNPSLKSRVTISVDMSKNQFSLKLNSVTAADTAVYYCARDRWNWKYGMDVWGQGTTVIVSS VL: EIVLTQSPGTLSLSPGERATLSCRASQTVRNSYLAWYHQKPGQAPRLLIYGASSRATGIPDRFSGSGSGTDFTLTISRLEPEDFAVYYCQQYGSSYWTFGQGTKMEIKR
6 | binds | binds | – | – | H1H27729P-N297Q (antibody, human IgG1, V domains shown) VH: QVQLVESGGGLVKPGGSLRLSCAASGFIFSDYYMSWIRQAPGKGLEWVSYISSSGTTIYGDSVKGRFTMSRDNAKNSLYLQMNSLRAEDTAVYYCARNYALFDYWGQGTLVTVSS VL: DIQMTQSPSSLSASVGDRVTITCQASQDISKYLNWYQQKPGKAPKLLIYYTSNLETGVPSRFSGSGSGTDFTFTISSLQPEDIATYYCHQSDYLPFTFGPGTKVDIKR
7 | binds | binds | – | – | H1H27734P-N297Q (antibody, human IgG1, V domains shown) VH: EVQLVESRGGLVQPGGSLRLSCAASGFTFSSYAMSWVRQAPGKGLEWVSAISGSGGSTFYADSVKGRFTISRDNSKNTVYLQMNSLRAEDTAVYYCAKALVLRFLEWLGDYWGQGTLVTVSS VL: DIQMTQSPSTLSASVGDRVTITCRASQSISSWLAWFQQKPGKAPKLLIYKASSLESGVPSRFSGSGSGTEFTLTISSLQPDDFATYYCQQYKSYWTFGQGTKVEIKR
8 | binds | binds | – | – | H1H27747P-N297Q (antibody, human IgG1, V domains shown) VH: QVQLVESGGAVVQPGRSLRLSCAASGFTFSYYGMHWVRQAPGKGLEWVAVISYDGSKKYYADSVKGRFTISRDNSKNTLYLQMNSLRAEDTAVYYCAKDLTVDFYYGMDVWGQGTTVTVSS VL: DIQMTQSPSSVSASVGDRVTITCRASQGISSWLAWYQQKPGKAPKLLIYATSSLQSGAPSRFSGSGSGTDFTLTISSLQPEDFATYFCQQANSFPYTFGQGTKLEIKR
9 | binds | binds | – | – | H1H27754P-N297Q (antibody, human IgG1, V domains shown) VH: EVQLVESGGGLVQPGGSLRLSCAASGFTFRTYAMTWVRQAPGKGLDWVSAITGDGGNTYYADSVKGRFTISRDNSKNTLYLQMNSLRAEDTAIYYCAKDQRFSFALYYFDYWGQGTLVTVSS VL: DIQMTQSPSSVSASVGDRVTITCRASQGISSWLAWYQQKPGNAPKLLIYAAFSLQSGVPSRFSGSGSGTDFTLTISSLQPEDFATYYCQQANNFPWTFGQGTKVEIKR
